The source of these data is US20100136005A1.

No constants are given. Whether binding was seen depends on the method and setting.

In one assay the target is T1, rhesus CD11a (rhesus) (UniProt H9Z8N3).
T1 sequence: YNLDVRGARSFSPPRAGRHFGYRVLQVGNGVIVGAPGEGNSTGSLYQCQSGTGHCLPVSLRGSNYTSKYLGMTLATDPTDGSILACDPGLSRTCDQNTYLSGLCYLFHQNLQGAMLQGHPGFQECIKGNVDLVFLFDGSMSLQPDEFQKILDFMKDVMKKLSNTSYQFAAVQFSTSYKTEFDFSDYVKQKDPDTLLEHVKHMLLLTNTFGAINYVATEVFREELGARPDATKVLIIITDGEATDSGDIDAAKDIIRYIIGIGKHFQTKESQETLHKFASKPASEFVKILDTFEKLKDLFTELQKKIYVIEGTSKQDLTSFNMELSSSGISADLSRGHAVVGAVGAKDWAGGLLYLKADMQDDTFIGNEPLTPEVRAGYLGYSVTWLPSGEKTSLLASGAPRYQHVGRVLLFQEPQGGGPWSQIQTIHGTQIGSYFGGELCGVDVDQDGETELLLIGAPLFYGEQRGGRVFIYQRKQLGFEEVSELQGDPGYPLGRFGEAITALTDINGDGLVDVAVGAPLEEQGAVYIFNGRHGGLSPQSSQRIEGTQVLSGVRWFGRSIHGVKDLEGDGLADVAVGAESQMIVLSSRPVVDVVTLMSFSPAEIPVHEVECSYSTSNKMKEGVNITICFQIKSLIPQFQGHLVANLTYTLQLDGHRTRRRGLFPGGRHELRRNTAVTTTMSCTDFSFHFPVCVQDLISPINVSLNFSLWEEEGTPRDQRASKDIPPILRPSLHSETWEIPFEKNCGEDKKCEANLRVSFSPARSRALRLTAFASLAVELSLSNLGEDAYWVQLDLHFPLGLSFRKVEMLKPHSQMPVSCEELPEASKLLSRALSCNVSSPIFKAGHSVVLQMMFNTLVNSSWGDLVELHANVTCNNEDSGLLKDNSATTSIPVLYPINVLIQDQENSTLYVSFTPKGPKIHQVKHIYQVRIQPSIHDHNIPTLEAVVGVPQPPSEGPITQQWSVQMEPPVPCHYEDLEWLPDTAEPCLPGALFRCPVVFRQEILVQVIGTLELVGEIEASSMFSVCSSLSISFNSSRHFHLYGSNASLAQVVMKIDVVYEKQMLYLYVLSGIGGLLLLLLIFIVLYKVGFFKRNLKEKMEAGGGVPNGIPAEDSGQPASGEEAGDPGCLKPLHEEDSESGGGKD
Kind of assay: condition: greater than 10-fold weaker than HuIgG1 (EC50 45.6 nM); binding to rhesus peripheral blood lymphocytes.

Another assay addresses T2, human CD11a (human) (UniProt P20701).
T2 sequence (looked up): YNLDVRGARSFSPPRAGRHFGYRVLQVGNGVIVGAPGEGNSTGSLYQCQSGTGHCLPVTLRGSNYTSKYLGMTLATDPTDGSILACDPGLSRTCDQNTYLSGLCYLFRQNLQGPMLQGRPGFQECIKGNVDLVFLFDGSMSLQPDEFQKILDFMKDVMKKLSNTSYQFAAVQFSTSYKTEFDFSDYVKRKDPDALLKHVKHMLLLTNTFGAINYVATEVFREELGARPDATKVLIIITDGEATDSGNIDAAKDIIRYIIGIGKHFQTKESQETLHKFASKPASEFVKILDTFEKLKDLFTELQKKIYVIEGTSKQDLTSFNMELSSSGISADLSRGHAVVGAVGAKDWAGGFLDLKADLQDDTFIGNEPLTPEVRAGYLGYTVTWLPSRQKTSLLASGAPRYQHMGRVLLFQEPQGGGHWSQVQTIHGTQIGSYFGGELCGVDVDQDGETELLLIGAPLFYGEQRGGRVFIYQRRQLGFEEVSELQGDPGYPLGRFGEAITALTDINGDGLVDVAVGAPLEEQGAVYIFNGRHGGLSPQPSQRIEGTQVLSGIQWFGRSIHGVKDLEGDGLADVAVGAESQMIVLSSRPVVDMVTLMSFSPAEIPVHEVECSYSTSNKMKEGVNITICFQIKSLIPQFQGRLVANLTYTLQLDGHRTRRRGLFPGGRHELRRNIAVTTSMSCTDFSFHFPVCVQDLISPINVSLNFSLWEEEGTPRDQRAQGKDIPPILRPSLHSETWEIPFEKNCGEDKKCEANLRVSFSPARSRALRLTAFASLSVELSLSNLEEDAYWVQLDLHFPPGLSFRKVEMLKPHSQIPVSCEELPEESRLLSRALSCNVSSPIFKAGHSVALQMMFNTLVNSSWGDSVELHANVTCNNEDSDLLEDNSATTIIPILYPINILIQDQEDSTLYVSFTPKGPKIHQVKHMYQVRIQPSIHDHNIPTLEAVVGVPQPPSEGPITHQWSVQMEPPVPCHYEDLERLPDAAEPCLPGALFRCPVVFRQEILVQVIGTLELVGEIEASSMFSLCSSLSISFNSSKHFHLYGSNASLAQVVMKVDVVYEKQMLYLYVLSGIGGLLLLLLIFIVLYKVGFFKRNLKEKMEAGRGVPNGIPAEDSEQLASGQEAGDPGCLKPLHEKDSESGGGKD
Kind of assay: FACScan, Jurkat cells.

B1: H3 (antibody, human IgG1, V domains shown)
VH: EVQLVESGGGLVQPGGSLRLSCAASGYSFTGHWMNWVRQAPGKGLEWVGMIHPSDSETRYNQKFKDRFTISVDKSKNTLYLQMNSLRAEDTAVYYCARGIAFAGTTYFDYWGQGTLVTVSS
VL: DIQMTQSPSSLSASVGDRVTITCRASKTISKYLAWYQQKPGKAPKLLIYSGSTLQSGVPSRFSGSGSGTDFTLTISSLQPEDFATYYCQQHNEYPLTFGQGTKVEIK
B1: the values for the binding entry in the assay with rhesus CD11a (rhesus) and with human CD11a (human) were “no binding” and “no binding (tested: Var.EC50/HuIgG1 EC50 >900)”, respectively.
